These are yes or no findings as the source states them, for the method shown. Some binding calls cover weakened binding; strength is not graded here. Tags and fused reporters may be left off the sequences shown.
T1: GIGANTEA (GI), full length, yeast two-hybrid fusion (Arabidopsis thaliana) (UniProt Q9SQI2)
T1 sequence: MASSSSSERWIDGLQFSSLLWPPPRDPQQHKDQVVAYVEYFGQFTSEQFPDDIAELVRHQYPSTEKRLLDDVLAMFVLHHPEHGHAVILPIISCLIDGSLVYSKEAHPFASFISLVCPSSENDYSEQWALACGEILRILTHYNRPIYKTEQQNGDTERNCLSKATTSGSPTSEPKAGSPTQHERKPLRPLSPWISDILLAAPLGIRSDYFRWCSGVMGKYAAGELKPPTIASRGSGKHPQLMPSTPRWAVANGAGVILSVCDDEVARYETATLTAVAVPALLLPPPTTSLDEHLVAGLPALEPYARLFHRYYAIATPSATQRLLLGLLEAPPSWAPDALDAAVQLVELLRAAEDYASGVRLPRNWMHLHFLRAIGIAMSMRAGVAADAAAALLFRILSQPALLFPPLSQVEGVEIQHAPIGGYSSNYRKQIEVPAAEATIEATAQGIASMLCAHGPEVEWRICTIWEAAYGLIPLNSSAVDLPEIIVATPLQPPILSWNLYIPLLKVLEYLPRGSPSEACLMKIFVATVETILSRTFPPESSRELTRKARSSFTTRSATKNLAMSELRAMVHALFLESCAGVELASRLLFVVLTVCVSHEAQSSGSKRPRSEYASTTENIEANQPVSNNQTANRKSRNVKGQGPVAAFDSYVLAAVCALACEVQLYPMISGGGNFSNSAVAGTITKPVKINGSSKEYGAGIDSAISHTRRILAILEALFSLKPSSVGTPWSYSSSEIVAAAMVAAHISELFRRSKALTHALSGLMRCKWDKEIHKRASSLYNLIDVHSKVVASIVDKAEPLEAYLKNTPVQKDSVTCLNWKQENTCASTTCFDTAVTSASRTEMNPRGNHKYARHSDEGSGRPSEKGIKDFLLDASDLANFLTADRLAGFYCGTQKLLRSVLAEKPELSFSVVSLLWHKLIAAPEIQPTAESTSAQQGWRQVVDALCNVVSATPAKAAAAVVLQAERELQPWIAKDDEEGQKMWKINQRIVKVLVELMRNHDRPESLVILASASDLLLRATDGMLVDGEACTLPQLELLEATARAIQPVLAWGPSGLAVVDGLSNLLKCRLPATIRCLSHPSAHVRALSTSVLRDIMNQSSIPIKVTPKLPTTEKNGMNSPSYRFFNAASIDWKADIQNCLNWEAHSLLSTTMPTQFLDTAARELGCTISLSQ

The chains behind the UniProt entries cited, without tags or fusion partners.
UniProt Q94BT6: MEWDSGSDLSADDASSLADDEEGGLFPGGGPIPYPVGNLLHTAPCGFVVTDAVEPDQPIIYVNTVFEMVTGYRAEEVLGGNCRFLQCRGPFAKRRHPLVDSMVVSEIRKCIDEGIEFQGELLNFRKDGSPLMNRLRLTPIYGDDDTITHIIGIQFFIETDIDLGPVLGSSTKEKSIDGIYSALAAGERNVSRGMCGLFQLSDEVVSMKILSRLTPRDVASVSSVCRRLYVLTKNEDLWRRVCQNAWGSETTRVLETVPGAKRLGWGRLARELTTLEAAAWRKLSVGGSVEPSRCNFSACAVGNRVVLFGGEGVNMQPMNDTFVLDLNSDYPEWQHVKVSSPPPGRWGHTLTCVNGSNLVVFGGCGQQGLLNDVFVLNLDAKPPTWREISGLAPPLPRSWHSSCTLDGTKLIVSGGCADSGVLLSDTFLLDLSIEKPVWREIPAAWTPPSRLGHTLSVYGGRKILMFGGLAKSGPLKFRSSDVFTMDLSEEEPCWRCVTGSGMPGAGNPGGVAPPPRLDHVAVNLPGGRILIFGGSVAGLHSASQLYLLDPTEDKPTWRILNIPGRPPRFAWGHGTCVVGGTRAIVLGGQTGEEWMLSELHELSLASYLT
UniProt Q9FTA2: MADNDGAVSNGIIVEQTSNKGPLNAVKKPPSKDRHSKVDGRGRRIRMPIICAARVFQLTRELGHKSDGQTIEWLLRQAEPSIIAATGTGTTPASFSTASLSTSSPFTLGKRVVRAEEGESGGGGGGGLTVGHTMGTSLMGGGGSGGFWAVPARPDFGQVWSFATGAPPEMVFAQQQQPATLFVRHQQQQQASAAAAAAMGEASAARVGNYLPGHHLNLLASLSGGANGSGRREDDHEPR

T2: PSEUDO-RESPONSE REGULATOR 5 (PRR5), yeast two-hybrid fusion (Arabidopsis thaliana) (UniProt Q6LA42)
T2 sequence: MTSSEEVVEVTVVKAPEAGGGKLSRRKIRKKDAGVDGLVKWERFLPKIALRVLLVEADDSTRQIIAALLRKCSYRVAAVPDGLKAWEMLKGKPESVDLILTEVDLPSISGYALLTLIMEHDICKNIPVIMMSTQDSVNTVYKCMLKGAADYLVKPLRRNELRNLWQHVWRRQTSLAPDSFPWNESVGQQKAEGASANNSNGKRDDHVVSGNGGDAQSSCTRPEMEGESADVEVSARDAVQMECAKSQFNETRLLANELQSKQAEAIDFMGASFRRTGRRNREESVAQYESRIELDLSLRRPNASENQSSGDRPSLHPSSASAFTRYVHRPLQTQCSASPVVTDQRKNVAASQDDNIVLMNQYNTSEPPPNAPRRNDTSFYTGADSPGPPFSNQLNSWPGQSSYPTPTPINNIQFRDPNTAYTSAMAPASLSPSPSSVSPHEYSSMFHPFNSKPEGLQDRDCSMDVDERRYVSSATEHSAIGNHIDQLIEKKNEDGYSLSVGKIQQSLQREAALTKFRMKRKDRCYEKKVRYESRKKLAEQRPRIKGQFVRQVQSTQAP

T3: TIMING OF CAB2 EXPRESSION 1 (TOC1), yeast two-hybrid fusion (Arabidopsis thaliana) (UniProt Q9LKL2)
T3 sequence: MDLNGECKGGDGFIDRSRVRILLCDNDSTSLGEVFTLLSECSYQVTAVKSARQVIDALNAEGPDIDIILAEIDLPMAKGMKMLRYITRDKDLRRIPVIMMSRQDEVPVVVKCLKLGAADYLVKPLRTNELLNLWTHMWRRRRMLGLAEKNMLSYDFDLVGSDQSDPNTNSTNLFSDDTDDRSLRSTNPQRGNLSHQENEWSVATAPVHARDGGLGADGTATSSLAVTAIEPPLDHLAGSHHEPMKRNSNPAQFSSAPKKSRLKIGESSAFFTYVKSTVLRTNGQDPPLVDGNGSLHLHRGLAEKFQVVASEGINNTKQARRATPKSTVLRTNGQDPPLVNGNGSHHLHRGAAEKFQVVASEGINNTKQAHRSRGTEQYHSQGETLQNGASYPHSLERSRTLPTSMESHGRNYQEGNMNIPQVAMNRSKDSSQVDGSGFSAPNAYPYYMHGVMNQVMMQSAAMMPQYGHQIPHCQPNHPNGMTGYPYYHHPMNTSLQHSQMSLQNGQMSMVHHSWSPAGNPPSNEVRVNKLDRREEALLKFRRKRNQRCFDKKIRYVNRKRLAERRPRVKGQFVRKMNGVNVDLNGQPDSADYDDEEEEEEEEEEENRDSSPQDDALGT


Legend:
Test in all cases: two-hybrid
[1] = target: T1, GIGANTEA (GI), full length, yeast two-hybrid fusion (Arabidopsis thaliana)
[2] = target: T2, PSEUDO-RESPONSE REGULATOR 5 (PRR5), yeast two-hybrid fusion (Arabidopsis thaliana)
[3] = target: ZEITLUPE (ZTL), full length, yeast two-hybrid fusion (Arabidopsis thaliana) (UniProt Q94BT6)
[4] = target: T3, TIMING OF CAB2 EXPRESSION 1 (TOC1), yeast two-hybrid fusion (Arabidopsis thaliana)
[5] = target: CCA1 HIKING EXPEDITION (CHE), yeast two-hybrid fusion (Arabidopsis thaliana) (UniProt Q9FTA2)

Binder	binding [1]	binding [2]	binding [3]	binding [4]	binding [5]
UBIQUITIN-SPECIFIC PROTEASE 12 (UBP12), full length, yeast two-hybrid fusion (enzyme, UniProt Q9FPT1 1-1116) MTMMTPPPVDQPEDEEMLVPNSDLVDGPAQPMEVTQPETAASTVENQPAEDPPTLKFTWTIPNFSRQNTRKHYSDVFVVGGYKWRILIFPKGNNVDHLSMYLDVSDAASLPYGWSRYAQFSLAVVNQIHTRYTVRKETQHQFNARESDWGFTSFMPLSELYDPSRGYLVNDTVLVEAEVAVRKVLDYWSYDSKKETGFVGLKNQGATCYMNSLLQTLYHIPYFRKAVYHMPTTENDAPTASIPLALQSLFYKLQYNDTSVATKELTKSFGWDTYDSFMQHDVQELNRVLCEKLEDKMKGTVVEGTIQQLFEGHHMNYIECINVDFKSTRKESFYDLQLDVKGCKDVYASFDKYVEVERLEGDNKYHAEGHGLQDAKKGVLFIDFPPVLQLQLKRFEYDFMRDTMVKINDRYEFPLELDLDREDGKYLSPDADRSVRNLYTLHSVLVHSGGVHGGHYYAFIRPTLSDQWYKFDDERVTKEDLKRALEEQYGGEEELPQTNPGFNNNPPFKFTKYSNAYMLVYIRESDKDKIICNVDEKDIAEHLRVRLKKEQEEKEDKRRYKAQAHLYTIIKVARDEDLKEQIGKDIYFDLVDHDKVRSFRIQKQTPFQQFKEEVAKEFGVPVQLQRFWIWAKRQNHTYRPNRPLTPQEELQPVGQIREASNKANTAELKLFLEVEHLDLRPIPPPEKSKEDILLFFKLYDPEKAVLSYAGRLMVKSSSKPMDITGKLNEMVGFAPDEEIELFEEIKFEPCVMCEHLDKKTSFRLCQIEDGDIICFQKPLVNKEIECLYPAVPSFLEYVQNRQLVRFRALEKPKEDEFVLELSKQHTYDDVVEKVAEKLGLDDPSKLRLTSHNCYSQQPKPQPIKYRGVDHLSDMLVHYNQTSDILYYEVLDIPLPELQGLKTLKVAFHHATKEEVVIHNIRLPKQSTVGDVINELKTKVELSHPDAELRLLEVFYHKIYKIFPSTERIENINDQYWTLRAEEIPEEEKNIGPNDRLILVYHFAKETGQNQQVQNFGEPFFLVIHEGETLEEIKNRIQKKLHVSDEDFAKWKFAFMSMGRPEYLQDTDVVYNRFQRRDVYGAFEQYLGLEHADTTPKRAYAANQNRHAYEKPVKIYN	binds	no binding	no binding	no binding	no binding
UBIQUITIN-SPECIFIC PROTEASE 13 (UBP13), full length, yeast two-hybrid fusion (enzyme, UniProt Q84WU2 1-1115) MTMMTPPPLDQQEDEEMLVPNPDLVEGPQPMEVAQTDPAATAVENPPPEDPPSLKFTWTIPMFTRLNTRKHYSDVFVVGGYKWRILIFPKGNNVDHLSMYLDVADAANLPYGWSRYSQFSLAVVNQVNNRYSIRKETQHQFNARESDWGFTSFMPLSELYEPTRGYLVNDTVLIEAEVAVRKVLDYWSYDSKKETGFVGLKNQGATCYMNSLLQTLYHIPYFRKAVYHMPTTENDAPTASIPLALQSLFYKLQYNDTSVATKELTKSFGWDTYDSFMQHDVQELNRVLCEKLEDKMKGTVVEGTIQKLFEGHHMNYIECINVDYKSTRKESFYDLQLDVKGCKDVYASFDKYVEVERLEGDNKYHAEGHDLQDAKKGVLFIDFPPVLQLQLKRFEYDFMRDTMVKINDRYEFPLQLDLDREDGRYLSPDADKSVRNLYTLHSVLVHSGGVHGGHYYAFIRPTLSDQWYKFDDERVTKEDVKRALEEQYGGEEELPQNNPGFNNPPFKFTKYSNAYMLVYIRESDKDKIICNVDEKDIAEHLRVRLKKEQEEKEDKRKYKAQAHLFTTIKVARDDDITEQIGKNIYFDLVDHEKVRSFRIQKQTPFQQFKEEVAKEFGVPVQLQRFWIWAKRQNHTYRPNRPLSPNEELQTVGQIREASNKANNAELKLFLEIERGPDDLPIPPPEKTSEDILLFFKLYDPENAVLRYVGRLMVKSSSKPMDIVGQLNKMAGFAPDEEIELFEEIKFEPCVMCEQIDKKTSFRLCQIEDGDIICYQKPLSIEESEFRYPDVPSFLEYVQNRELVRFRTLEKPKEDEFTMELSKLHTYDDVVERVAEKLGLDDPSKLRLTSHNCYSQQPKPQPIKYRGVDHLSDMLVHYNQTSDILYYEVLDIPLPELQGLKTLKVAFHSATKDEVIIHNIRLPKQSTVGDVINELKTKVELSHQDAELRLLEVFFHKIYKIFPSTERIENINDQYWTLRAEEIPEEEKNIGPNDRLIHVYHFTKEAGQNQQVQNFGEPFFLVIHEGETLEEIKTRIQKKLHVPDEDFAKWKFASFSMGRPDYLLDTDVVYNRFQRRDVYGAWEQYLGLEHIDNAPKRAYAANQNRHAYEKPVKIYN	binds	no binding	no binding	no binding	no binding

Reference: article doi:10.1101/611533
